This is an account of results in paper PMC11598884.

Results are given in words; binding and its absence hold for the method and conditions named. Binding seen in cells or lysates may run through a third protein. Binding calls can cover weak binding; strength is not graded here. Where a sequence is shown, tags or fusion partners need not be part of it.

The target of assay [1] is T1, Myc-tagged ISCA1 (pcDNA3.1-Myc) (chicken) (UniProt Q5ZJ74).
T1 sequence: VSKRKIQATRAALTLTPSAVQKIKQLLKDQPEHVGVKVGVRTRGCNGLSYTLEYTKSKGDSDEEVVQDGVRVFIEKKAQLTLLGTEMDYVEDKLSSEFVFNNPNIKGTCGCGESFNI
The experiment in a line: co-IP; HEK293T co-transfected 36 h with pcDNA3.1-Nsp2-Flag and Myc-tagged host protein; RIPA lysis; magnetic beads with Flag, Myc or IgG antibodies overnight at 4 °C; TBST washes; Western blot. A general note: A western blot detects proteins with antibodies after separation by electrophoresis.

Assay [2] has as its target IBV Nsp2-Flag (pcDNA3.1-Nsp2-Flag) (infectious bronchitis virus (IBV), strain JS/2010/12). The description is as above.

On to IBV Nsp2-Flag (pcDNA3.1-Nsp2-Flag), for which the binding entry in assay [1] is listed as “binds”.

B1: Myc-tagged ISCA1 (pcDNA3.1-Myc) (protein, UniProt Q5ZJ74 13-129)
chain: T1 sequence
As to B1, the binding result in assay [2] is on record as “binds”.
